From publication PMC10135297 (Antibiotics, 2023) come the findings set out here.

The data set is described as follows: general procedure: Fmoc solid-phase peptide synthesis; Rink amide resin (200 mg, 0.46 meq/g); DCC/6-Cl-HOBt. The note with it: for purity (crude or final not stated): whole synthesis, scale of the general procedure 200 mg resin, 0.46 meq/g.

For the substance CTpH(F)-(AAC-(K)-RRWQWR)4 (rctt), the conjugation yield (conjugation step) turned out to be 56.6%. The “final HPLC purity” value (conjugation step, RP-HPLC) is listed as 74.6%.

For K(N3)-RLLR-NH2, the “purity (crude or final not stated)” value (RP-HPLC) came out at 98.2%.

As for K(N3)-RRWQWR-NH2, the “purity (crude or final not stated)” value (RP-HPLC) was 83.7%.
